Data: article PMC3625198
These are yes or no findings as the source states them, for the method shown. In cells and extracts the contact can be indirect. Some results given as binding are weak or reduced against the parent protein; the word gives no strength.

Chains of the proteins cited; added tags and fusions are not shown. Lines headed by an entry give the natural chain unless they say otherwise; changes in a name come on top. Residues count along the entry.
UniProt O00206, residues 24-839: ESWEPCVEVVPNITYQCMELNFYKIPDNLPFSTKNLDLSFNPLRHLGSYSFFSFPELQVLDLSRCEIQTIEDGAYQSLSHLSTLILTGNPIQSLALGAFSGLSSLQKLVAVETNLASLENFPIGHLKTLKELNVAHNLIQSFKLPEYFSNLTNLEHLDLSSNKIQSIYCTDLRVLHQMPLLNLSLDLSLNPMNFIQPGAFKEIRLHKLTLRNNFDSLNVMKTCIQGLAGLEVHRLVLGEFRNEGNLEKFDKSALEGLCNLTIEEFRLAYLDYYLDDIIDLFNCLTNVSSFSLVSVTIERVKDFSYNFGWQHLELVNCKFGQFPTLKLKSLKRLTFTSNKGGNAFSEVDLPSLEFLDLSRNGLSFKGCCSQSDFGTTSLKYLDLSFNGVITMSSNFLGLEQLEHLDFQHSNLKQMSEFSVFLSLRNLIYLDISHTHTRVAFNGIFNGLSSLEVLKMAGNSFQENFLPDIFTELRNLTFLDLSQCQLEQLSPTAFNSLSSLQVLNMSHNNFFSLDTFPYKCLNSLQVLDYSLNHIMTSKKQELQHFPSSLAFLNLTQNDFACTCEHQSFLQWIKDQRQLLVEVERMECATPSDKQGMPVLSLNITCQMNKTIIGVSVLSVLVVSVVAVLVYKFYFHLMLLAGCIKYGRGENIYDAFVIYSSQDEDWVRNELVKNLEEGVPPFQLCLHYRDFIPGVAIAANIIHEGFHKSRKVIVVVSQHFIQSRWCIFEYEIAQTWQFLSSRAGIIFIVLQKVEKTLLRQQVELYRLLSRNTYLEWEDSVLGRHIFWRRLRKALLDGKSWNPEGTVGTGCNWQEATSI
UniProt O60603: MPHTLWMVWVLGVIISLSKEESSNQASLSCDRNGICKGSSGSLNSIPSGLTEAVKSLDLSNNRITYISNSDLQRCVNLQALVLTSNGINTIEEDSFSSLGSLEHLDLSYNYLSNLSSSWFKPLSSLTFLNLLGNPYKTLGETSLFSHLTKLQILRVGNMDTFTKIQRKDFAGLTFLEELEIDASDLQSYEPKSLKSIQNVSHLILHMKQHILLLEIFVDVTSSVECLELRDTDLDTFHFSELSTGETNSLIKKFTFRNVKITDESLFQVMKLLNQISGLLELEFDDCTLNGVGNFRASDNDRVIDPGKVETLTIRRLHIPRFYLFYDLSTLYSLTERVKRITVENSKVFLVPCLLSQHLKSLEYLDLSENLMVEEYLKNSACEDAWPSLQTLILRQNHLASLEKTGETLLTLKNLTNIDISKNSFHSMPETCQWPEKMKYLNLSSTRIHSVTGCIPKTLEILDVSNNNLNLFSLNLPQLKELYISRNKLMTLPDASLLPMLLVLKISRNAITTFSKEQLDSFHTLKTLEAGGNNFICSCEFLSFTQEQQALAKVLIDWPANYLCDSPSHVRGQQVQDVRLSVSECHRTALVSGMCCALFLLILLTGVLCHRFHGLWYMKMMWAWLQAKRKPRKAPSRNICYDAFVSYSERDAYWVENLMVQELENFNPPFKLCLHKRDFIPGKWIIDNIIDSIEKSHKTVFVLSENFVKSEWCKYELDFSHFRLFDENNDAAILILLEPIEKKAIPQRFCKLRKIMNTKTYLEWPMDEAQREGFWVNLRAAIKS

Legend:
[1] = target: T1, Toll-like receptor 6 (human (endogenous in human amniotic epithelial cells)) (UniProt Q9Y2C9); experiment: condition: only cells not stimulated with Ureaplasma; FRET or BRET; acceptor photobleaching FRET on fixed primary human amniotic epithelial cells, not stimulated; TLR2 labelled with Cy3-antibody (donor), other receptors with Cy5-antibody (acceptor)
T1 sequence: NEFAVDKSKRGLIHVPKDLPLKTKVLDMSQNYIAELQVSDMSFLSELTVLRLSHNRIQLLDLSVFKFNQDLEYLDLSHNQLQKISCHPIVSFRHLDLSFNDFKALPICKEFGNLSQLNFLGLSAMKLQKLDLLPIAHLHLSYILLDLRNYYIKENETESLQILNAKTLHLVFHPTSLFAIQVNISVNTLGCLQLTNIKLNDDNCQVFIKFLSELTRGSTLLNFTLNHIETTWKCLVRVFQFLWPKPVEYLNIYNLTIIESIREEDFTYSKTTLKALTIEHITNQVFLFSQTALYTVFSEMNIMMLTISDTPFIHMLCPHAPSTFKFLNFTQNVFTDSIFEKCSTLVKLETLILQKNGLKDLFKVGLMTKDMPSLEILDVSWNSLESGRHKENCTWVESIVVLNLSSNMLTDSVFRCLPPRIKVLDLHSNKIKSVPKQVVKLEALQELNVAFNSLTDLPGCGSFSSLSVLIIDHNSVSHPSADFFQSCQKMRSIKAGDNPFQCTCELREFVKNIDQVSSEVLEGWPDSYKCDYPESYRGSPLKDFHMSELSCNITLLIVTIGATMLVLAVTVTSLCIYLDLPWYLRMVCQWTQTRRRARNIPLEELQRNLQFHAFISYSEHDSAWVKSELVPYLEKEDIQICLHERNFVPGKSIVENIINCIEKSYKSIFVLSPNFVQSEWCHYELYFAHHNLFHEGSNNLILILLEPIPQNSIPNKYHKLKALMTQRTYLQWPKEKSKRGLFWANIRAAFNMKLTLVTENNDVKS

[2] = target: Toll-like receptor 4 (human (endogenous in human amniotic epithelial cells)) (UniProt O00206); experiment: as above
[3] = target: Toll-like receptor 4 (human (endogenous in human amniotic epithelial cells)) (UniProt O00206); experiment: FRET or BRET; acceptor photobleaching FRET on fixed primary human amniotic epithelial cells stimulated 1 h with Ureaplasma parvum SV3, SV14 or U. urealyticum SV2 (1x10^8 bacteria/ml to 1x10^7 cells/ml); TLR2 Cy3-antibody (donor), other receptors Cy5-antibody (acceptor)
[4] = target: Toll-like receptor 4 (human (endogenous in human amniotic epithelial cells)) (UniProt O00206); experiment: condition: only cells stimulated with MBA (1 µg/ml); FRET or BRET; acceptor photobleaching FRET on fixed primary human amniotic epithelial cells stimulated 1 h with MBA (1 µg/ml); TLR2 Cy3-antibody (donor), other receptors Cy5-antibody (acceptor)

Toll-like receptor 2 (from UniProt O60603 21-784)
binding [1]: no binding
binding [2]: no binding
binding [3]: binds weakly
binding [4]: no binding
